Measurements published in PubChem BioAssay (EPA / NIEHS).
The hits were mostly taken out for another list; the other results follow. Inconclusive results are not listed. Activity calls are given as the source filed them. How the source made its calls: active means hit-call score of the fitted dose curve at least 0.9, where 1 is the maximum; inconclusive means response in the unintended direction; inactive means score below 0.9.

Test system: not listed separately
Experiment: ACEA_AR_antagonist_AUC_viability: ACEA Biosciences xCELLigence Real-Time Cell Analysis on Androgen Receptor Antagonism for Viability (AID 2283776);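 further: 22Rv1 human prostate cancer cells growing on impedance electrode plates; area under impedance growth curve at 80 h after dosing as viability; hits lower the growth signal relative to DMSO meaning cytotoxicity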
Outline: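 22Rv1 prostate cells, continuous dosing up to 100 uM final (0.5% DMSO max), duplicate plates. Growth measured by impedance; AUC at 80 h, loss of signal vs DMSO.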

Compound	outcome	AC50
CC(=O)c1ccccc1O	inactive	
[O-]/[N+](=N\O)c1ccccc1	inactive	
CCCCCC(C=O)=Cc1ccccc1	inactive	
CCCCCC1C(=O)CCC1CC(=O)OC (stereo not given)	inactive	
CCO[Si](CCCN)(OCC)OCC	inactive	
Cc1ccc(C(C)(C)C)cc1	inactive	
CC(=O)c1ccc(O)cc1	inactive	
c1ccc2scnc2c1	inactive	
O=C(Oc1ccccc1)c1ccccc1O	inactive	
CC(=O)/C=C/C1C(C)=CCCC1(C)C (stereo not given)	inactive	
CN(C)C	inactive	
CC(=O)C=CC1=C(C)CCCC1(C)C	inactive	
CCCCOCCOC(=O)COc1nc(Cl)c(Cl)cc1Cl	inactive	
CCc1cc(Cc2cc(CC)c(N)c(CC)c2)cc(CC)c1N	inactive	
CCCCCCOC(=O)c1ccccc1	inactive	
CC[C@H](NC(=O)c1cc(F)ccc1NS(=O)(=O)c1cccc2cccnc12)c1ccccc1		active: 43.2 µM
CC(C)(C)C(=O)c1ccccc1	inactive	
CCC(C)COC(=O)CC(C)C (stereo not given)	inactive	
O=CCc1ccccc1	inactive	
CCCCCCC(=O)c1ccccc1	inactive	
CCCCOC(=O)[C@H](C)O	inactive	
CN(C)c1ccc(N=Nc2ccccc2C(=O)O)cc1		active: 3.3 µM
C=C(C)C(=O)OCCOC1CC2CC1C1C=CCC21 (stereo not given)	inactive	
COc1ccc(OC)cc1	inactive	
CCCCCCCCC	inactive	
CC(C)CCCC(C)(C)O	inactive	

Test system: Sodium/Iodide Symporter (NIS), SLC5A5 (gene 6528)
Experiment: CPHEA_Stoker_NIS_Inhibition_RAIU: CPHEA's Radioactive Iodide Uptake (RAIU) Assay for Sodium/Iodide Symporter (NIS) Inhibition, Stoker and Laws Labs (AID 2283841)
Outline: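 Iodide uptake through human NIS is measured in an engineered HEK293T line. Cells take up 125I (329pM final) for 2 hours at room temperature alongside chemicals at 0.001–100uM. Retained radioactivity is counted, and the signal is expressed against DMSO controls.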

Compound	outcome
CC(C)=CCC[C@](C)(O)[C@@H]1CC=C(C)CC1	inactive
CCCCCCCC/C=C\CCCCCCCC(=O)N(C)CC(=O)O	inactive
C1CN(SSN2CCOCC2)CCO1	inactive
O=CCc1ccccc1	inactive
